Test [1] deals with Sp1 (human (endogenous in H520, H226 and human SCC-L tumors)) (UniProt P08047). In words: co-IP; IP-Western with the TrueBlot kit; Sp1 immunoprecipitated, GATA4 blotted; lysates of serum-starved cells without nicotine.
The target is the same in test [2]. As to the kind of experiment: co-IP; IP-Western of lysates of human SCC-L tumors from patients (SCC-103, SCC-112, SCC-104, SCC-173); Sp1-GATA4; densitometry.
Test [3] has the same target. In words: co-IP; IP-Western with the TrueBlot kit; Sp1 immunoprecipitated, GATA4 blotted; lysates of H520 and H226 cells treated with 100 nM nicotine for 48 h.
Test [4] has the same target. In words: ChIP-re-ChIP; human SCC-L tumors from patients; first chromatin IP with Sp1 antibody, second with GATA4 or GATA6 antibody; PCR of the α7-nAChR promoter.
Test [5] has the same target. In words: ChIP-re-ChIP; first chromatin IP with monoclonal Sp1 antibody, re-immunoprecipitated with GATA4 or GATA6 polyclonal antibody; PCR of the α7-nAChR promoter; untreated control H520 cells.
For test [6] the target is unchanged. As to the kind of experiment: ChIP-re-ChIP; first chromatin IP with monoclonal Sp1 antibody, eluted with 10 mM DTT, re-immunoprecipitated with GATA4 or GATA6 polyclonal antibody; PCR of the α7-nAChR promoter; H520 cells treated with 100 nM nicotine for 48 h.
For test [7] the target is unchanged. As to the kind of experiment: co-IP; data not shown; IP-Western of lysates of human SCC-L tumors from patients; Sp1-GATA6.
The target is the same in test [8]. As to the kind of experiment: co-IP; data not shown; IP-Western of Sp1 and GATA6; H520 and H226 cells treated with nicotine for 48 h.
Test [9] has as its target GATA4 (human (endogenous in H520, H226 and human SCC-L tumors)) (UniProt P43694). As to the kind of experiment: ChIP-re-ChIP; data not shown; reverse fashion: first chromatin IP with GATA4 polyclonal antibody followed by re-ChIP; human SCC-L tumors.
For test [10] the target is unchanged. In words: co-IP; data not shown; the other way around: H520 lysates immunoprecipitated with GATA4 or GATA6 antibody, Sp1 blotted; nicotine-treated cells.
Test [11] has as its target GATA6 (human (endogenous in H520, H226 and human SCC-L tumors)) (UniProt Q92908). Described as above.
In test [12] the target is GATA4 (human (endogenous in H520, H226 and human SCC-L tumors)) (UniProt P43694). In words: co-IP; data not shown; the other way around: H520 lysates immunoprecipitated with GATA4 or GATA6 antibody, Sp1 blotted; serum-starved cells without nicotine.
Test [13] deals with GATA6 (human (endogenous in H520, H226 and human SCC-L tumors)) (UniProt Q92908). The test is described as above.

Protein sequences, listed by entry. Tags and fused reporters are not part of them.
UniProt P08047: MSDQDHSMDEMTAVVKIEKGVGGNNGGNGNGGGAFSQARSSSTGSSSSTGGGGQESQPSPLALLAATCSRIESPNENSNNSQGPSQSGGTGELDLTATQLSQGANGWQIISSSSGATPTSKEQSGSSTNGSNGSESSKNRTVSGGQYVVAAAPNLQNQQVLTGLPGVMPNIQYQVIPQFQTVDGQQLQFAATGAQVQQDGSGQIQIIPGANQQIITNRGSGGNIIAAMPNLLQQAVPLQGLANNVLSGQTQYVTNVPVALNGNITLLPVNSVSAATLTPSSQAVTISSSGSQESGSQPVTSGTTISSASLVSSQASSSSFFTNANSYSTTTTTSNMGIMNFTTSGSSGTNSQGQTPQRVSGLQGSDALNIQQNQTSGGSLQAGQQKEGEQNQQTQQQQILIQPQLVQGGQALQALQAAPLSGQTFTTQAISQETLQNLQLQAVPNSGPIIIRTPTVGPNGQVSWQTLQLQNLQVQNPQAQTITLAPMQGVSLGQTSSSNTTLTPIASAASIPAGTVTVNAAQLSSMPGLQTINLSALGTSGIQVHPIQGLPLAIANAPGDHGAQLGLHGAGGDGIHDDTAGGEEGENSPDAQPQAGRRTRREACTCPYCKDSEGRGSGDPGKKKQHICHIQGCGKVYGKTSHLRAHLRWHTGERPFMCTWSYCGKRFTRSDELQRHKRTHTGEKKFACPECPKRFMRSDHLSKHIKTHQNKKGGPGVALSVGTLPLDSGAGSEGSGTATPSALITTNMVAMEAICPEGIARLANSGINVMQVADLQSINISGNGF
UniProt P43694: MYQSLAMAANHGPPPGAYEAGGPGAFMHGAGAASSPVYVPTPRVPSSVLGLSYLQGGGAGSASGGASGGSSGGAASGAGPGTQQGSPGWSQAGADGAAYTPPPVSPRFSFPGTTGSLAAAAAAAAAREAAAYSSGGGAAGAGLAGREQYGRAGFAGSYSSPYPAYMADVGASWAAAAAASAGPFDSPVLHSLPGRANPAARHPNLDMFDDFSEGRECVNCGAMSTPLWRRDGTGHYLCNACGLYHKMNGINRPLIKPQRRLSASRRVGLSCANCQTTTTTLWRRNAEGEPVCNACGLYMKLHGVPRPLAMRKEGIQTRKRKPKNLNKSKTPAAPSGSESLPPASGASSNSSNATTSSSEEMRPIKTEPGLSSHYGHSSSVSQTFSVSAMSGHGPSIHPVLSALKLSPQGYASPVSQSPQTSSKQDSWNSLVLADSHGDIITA
UniProt Q92908: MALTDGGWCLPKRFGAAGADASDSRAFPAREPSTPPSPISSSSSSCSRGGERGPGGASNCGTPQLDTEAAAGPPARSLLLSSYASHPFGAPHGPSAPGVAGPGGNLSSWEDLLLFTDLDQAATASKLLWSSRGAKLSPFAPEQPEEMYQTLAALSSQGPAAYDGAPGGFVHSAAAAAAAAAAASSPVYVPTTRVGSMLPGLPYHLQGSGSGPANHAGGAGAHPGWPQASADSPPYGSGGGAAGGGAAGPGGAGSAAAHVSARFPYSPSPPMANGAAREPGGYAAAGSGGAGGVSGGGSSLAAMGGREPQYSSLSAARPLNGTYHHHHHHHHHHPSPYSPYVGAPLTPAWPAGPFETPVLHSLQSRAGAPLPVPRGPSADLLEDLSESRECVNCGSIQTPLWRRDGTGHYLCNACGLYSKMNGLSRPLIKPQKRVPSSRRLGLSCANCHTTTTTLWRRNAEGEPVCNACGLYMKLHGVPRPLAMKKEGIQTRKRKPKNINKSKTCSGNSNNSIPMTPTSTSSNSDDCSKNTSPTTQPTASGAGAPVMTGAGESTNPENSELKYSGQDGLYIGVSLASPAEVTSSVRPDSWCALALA

Results on three substances are retold here after article PMC3829154.

No constants are given. Whether binding was seen depends on the method and setting. For some of these results: In cells and extracts the contact can be indirect. Some entries that bind do so weakly or less than the wild type.

As for GATA4 (from UniProt P43694 1-442), the binding result is on record as “binds weakly” in test [1]; “binds” in test [2]; “binds” in [3]; “binds” in test [4]; “binds weakly” in test [5]; “binds” in [6].
GATA6 (from UniProt Q92908 1-595): the binding result in test [7] is “binds”; in test [8], “binds”; in [4], “binds”; in test [5], “binds weakly”; in test [6], “binds”.
With Sp1 (from UniProt P08047 1-785), the binding result in test [9] was “binds”; in test [10] it was “binds”; in test [11] it was “binds”; in test [12], “binds weakly”; in test [13], “binds weakly”.
